Our source for the IC50 values is patent publication US10336734B2, “Inhibitors of ACK1/TNK2 tyrosine kinase” (H. LEE MOFFITT CANCER CENTER AND RESEARCH INSTITUTE, INC., priority 2015, dated 2019).

This assay relates to enzalutamide-resistant C4-2B cell line. Description: Cell viability and AR expression, enzalutamide-resistant C4-2B cells. It counts as cell-based. An excerpt: FIG. 7A through 7F. (R)-9bMS overcome enzalutamide-resistance of CRPCs. […] Data represent mean±s.e.m. (n=3) from one of three independent experiments. […] Data represent mean±s.e.m. (n=3) from one of three independent experiments. […] Data represent mean±standard error of the mean (s.e.m.) (n=3) from one of three independent experiments.*p<0.05. […] Cell cycle analysis of prostate cell lines treated with (R)-9bMS (24 hr).
To examine relative sensitivity of CRPCs to enzalutamide and (R)-9bMS, we generated enzalutamide-resistant C4-2B cell line.

The structures appear in SMILES notation. pIC50: −log10 of the molar value.

The compound `CNC(=O)c1ccc(N2C(=S)N(c3ccc(C#N)c(C(F)(F)F)c3)C(=O)C2(C)C)cc1F` [enzalutamide, reference compound] had a pIC50 of less than 5.12.

The pIC50 is −log10 of the IC50, conventionally taken in molar units. High values mean a small IC50, low ones a large IC50.
